Measurements reported in PubChem BioAssay AID504808 (Drosophila RNAi Screening Center, 2011).
Assay: 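Fly genes required to hold E2F transcription in check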 (primary screen). System: Drosophila S2 cells. Knock-down reagent: long dsRNA against Drosophila genes. Measured: 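Dual luciferase plate measurements; E2F-specific signal taken as firefly over Renilla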. Direction: E2F firefly: higher = more E2F reporter activity; Renilla normaliser: higher = more normaliser reporter signal. Call rule: 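a knock-down counted as active when the firefly/Renilla E2F signal rose above 50%, a threshold chosen arbitrarily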.
The deposit covers about 21,000 reagents; this is a random part of those that have a named target and a result. In the full data, 18 (0.084%) got an active call. 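Raw counts without plate normalisation, one of two replicates; the ratio scores behind the calls were not deposited.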 Entries without a mark were called inactive. A plus sign joins genes that one reagent is predicted to hit. Not stated in the record: the amount of reagent, the time to read-out.

no.	gene	amplicon	E2F firefly, rep 1	Renilla normaliser, rep 1
1	Antdh	DRSC20307	1.35e5	6901
2	Ddx1	DRSC11862	74998	4015
3	CG32488	DRSC08549	54787	4219
4	psh	DRSC19990	1.60e5	6253
5	hkb	DRSC12377	1.12e5	6670
6	ECSIT	DRSC12348	1.41e5	7421
7	CG15772	DRSC18078	61007	4445
8	CG13601	DRSC14604	70627	3893
9	CG11475	DRSC04113	81142	3593
10	Cyp310a1	DRSC03301	83082	4177
11	Taf2	DRSC11298	70481	3277
12	unc-104	DRSC07710	1.52e5	5232
13	HemK2 + Snapin	DRSC00736	1.08e5	4184
14	HemK2 + Snapin	DRSC00737	1.57e5	5289
15	CG5235	DRSC10494	1.96e5	8603
16	CG10565	DRSC11620	75556	3664
17	CG16789	DRSC15155	1.73e5	5926
18	Cdc27	DRSC11112	70549	3674
19	CG31751	DRSC02464	73355	3465
20	CG31751	DRSC02465	86741	4097
21	Cp190	DRSC16607	78910	3284
22	Rh6	DRSC16823	1.13e5	6877
23	CG18540	DRSC06767	1.32e5	5128
24	Hira	DRSC18672	1.04e5	5426
25	CG8861	DRSC12731	73691	3011
26	CG8861	DRSC16449	1.27e5	8491
27	PGS1	DRSC16304	1.58e5	7372
28	CG30486	DRSC06680	1.11e5	4481
29	Obp56i	DRSC05812	1.58e5	5806
30	CG31999	DRSC17131	1.19e5	5502
31	CG31999	DRSC17133	1.11e5	5621
32	CG18537	DRSC06764	1.39e5	5106
33	CG16787	DRSC04282	1.02e5	4237
34	CG2246	DRSC15433	1961	832
35	CG10486	DRSC09735	70908	3238
36	side-III	DRSC12155	1.53e5	6748
37	side-III	DRSC12263	92875	5760
38	side-III	DRSC12264	1.29e5	7979
39	CG14106	DRSC10109	1.26e5	7376
40	Elp3	DRSC00448	1.41e5	5073
41	Sardh	DRSC06981	74510	3414
42	Pgant35A	DRSC03557	1.02e5	4394
43	CG9686	DRSC18439	1.01e5	5462
44	CG10650	DRSC02085	90060	4019
45	CG17196	DRSC15189	1.06e5	5903
46	CG15160	DRSC02461	87342	3862
47	CG31917 + Tfb5	DRSC02362	1.64e5	4950
48	CG31917 + Tfb5	DRSC02363	1.80e5	5135
49	CG14966	DRSC08425	97542	3797
50	Prosbeta5R2	DRSC01617	1.25e5	6131
51	CG13841	DRSC14691	80560	6140
52	CG31106	DRSC14655	1.20e5	6763
53	CG7691	DRSC16287	1.37e5	8135
54	CG9312	DRSC16471	78796	3892
55	Mst27D	DRSC00967	1.28e5	4690
56	Cpsf160	DRSC05968	2940	210
57	Zpr1	DRSC18432	8459	860
58	RpS15	DRSC07151	94027	5223
59	Mettl2	DRSC08398	67885	3369
60	pav	DRSC08730	1.03e5	3528
61	Roe1	DRSC07534	3143	187
62	BomBc1	DRSC06501	1.26e5	4892
63	Ntf-2r	DRSC02019	85537	136
64	CG32708	DRSC18411	96834	5790
65	CG4570	DRSC15602	1.57e5	6845
66	CheB93a	DRSC15044	1.47e5	7302
67	rhea	DRSC11300	96367	4270
68	CG18599	DRSC15357	1.36e5	6856
69	cher	DRSC16924	69802	4234
70	Cnx14D	DRSC20214	1.43e5	6070
71	CG14356	DRSC14819	1.08e5	5923
72	CG12945	DRSC14573	1.24e5	6761
73	P5cr	DRSC16782	1.43e5	7215
74	CG9263	DRSC03176	1.07e5	4404
75	CG15233	DRSC04967	84017	3836
76	NitFhit	DRSC08680	94031	4152
77	rod	DRSC17047	59174	5063
78	fray	DRSC16950	1.32e5	7108
79	Argk1	DRSC08959	1.35e5	5214
80	Argk1	DRSC09668	76310	2903
81	Argk1	DRSC10460	74690	3633
82	CG32100	DRSC09725	1.22e5	5292
83	CG32100	DRSC10331	1.18e5	6398
84	CG30156	DRSC04959	1.31e5	5283

A portion from the list above, as a working copy:
no.	gene	amplicon	E2F firefly, rep 1	Renilla normaliser, rep 1
11	Taf2	DRSC11298	70481	3277
12	unc-104	DRSC07710	1.52e5	5232
13	HemK2 + Snapin	DRSC00736	1.08e5	4184
14	HemK2 + Snapin	DRSC00737	1.57e5	5289
15	CG5235	DRSC10494	1.96e5	8603
